{"source": "paper PMC10752957", "about": "“GABAA receptors as plausible molecular targets and mediators for taurine and homotaurine actions” (Frontiers in Pharmacology, 2023)", "system": "native GABAARs in cerebellar granule cells", "assay": "Whole-cell patch clamp of cerebellar granule cells in mouse brain slices, cumulative concentration-response", "assay_type": "cell-based", "conditions": "read-out: EC50 for evoking GABAAR-mediated current; CGCs held at −70 mV, 10 μM DNQX, 0.3 μM TTX, room temperature, mean ± SEM, n = 7", "data": [{"smiles": "NCCCC(=O)O", "note": "[GABA]", "values": [{"measurement": "EC50", "result": 3.7, "unit": "µM"}]}]}
